Measurements published in PubChem BioAssay AID2685 (National Center for Advancing Translational Sciences (NCATS), 2010).
This is one part of the list. Further columns of the screen follow, without active or inactive calls. Most of these compounds were active or inconclusive in the main read-out, so they are no random draw. The note in brackets gives the kind of curve behind each potency; many fits are weak.

Test: qHTS Assay for Lipid Storage Modulators in Drosophila S3 Cells;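 for cell number change: cells counted by Cell Tracker Red CMTPX staining in the red channel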
Conditions: BODIPY lipid droplet fluorescence, 18-24 h; for cell number change: measured here: cell count max response, cells fed with added oleic acid
Method in brief: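 Drosophila S3 cells loaded with oleic acid (400 uM, as added) and compounds at several concentrations; lipid droplets imaged by 488-nm laser-scanning cytometry, 500–530 nm intensity and object ratio to cell channel. Percent activity normalized to 20 uM Triacsin C.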

[1] = measured here: cell number channel AC50, cells fed with added oleic acid
[2] = measured here: lipid fluorescence (Fed channel) AC50, cells fed with added oleic acid

| Structure (SMILES) | cell number change | AC50 [1] | AC50 [2] |
| --- | --- | --- | --- |
| O=C1CC(N2CCOCC2)C(=O)N1CCc1ccccc1 (configuration not stated) | -23.3% | 2.31 µM [falling, single point] | 32.6 µM [falling, partial curve, poor fit] |
| C/C(=N\NC(=S)Nc1ccc(C(C)C)cc1)c1ccc2c(c1)OCO2 | 22.3% | 0.517 µM [rising, full curve, poor fit] | 1.3 µM [rising, full curve] |
| CCCSc1ccc([C@@H]2[C@@H]3C(=O)N(C)C(=O)[C@@H]3[C@]3(C(=O)OC)CCCCN23)cc1OC | -43.4% | 29.1 µM [falling, single point] | – |
| COc1cc(S(=O)(=O)NCC2OCCc3ccccc32)ccc1-n1cnnn1 (configuration not stated) | -40.9% | 29.1 µM [falling, single point] | – |
| Cc1ccsc1/C=N/NS(=O)(=O)c1ccc([N+](=O)[O-])cc1 | 1.06% | – | 29.1 µM [rising, single point] |
| O=C(Nc1ccc(N2CCOCC2)nc1N1CCOCC1)c1cccc(C(F)(F)F)c1 | 31.1% | 9.2 µM [rising, partial curve] | 11.6 µM [rising, partial curve, poor fit] |
| Cc1ccc(OCc2ccc(C(=O)N3CCCC3)o2)cc1C | 3.78% | – | – |
| CCN1CCN(c2ccc(S(=O)(=O)N3CCCCC3)cc2NC(=O)Cc2ccc(Cl)c(Cl)c2)CC1 | 180% | – | – |
| O=c1c(Cl)c(N2CCC3(CC2)OCCO3)cnn1C12CC3CC(CC(C3)C1)C2 | 9.71% | – | 16.4 µM [rising, single point] |
| NS(=O)(=O)c1ccc(CCNC(=O)C(=O)C2C(=O)Nc3ccccc32)cc1 (configuration not stated) | -13.7% | – | 0.651 µM [falling, full curve, poor fit] |
| CCc1ccc(/C=C2\SC(=S)N(CCCC(=O)Nc3ccccc3C(=O)O)C2=O)cc1 | -7.37% | 0.92 µM [rising, partial curve] | – |
| O=C(O)CC(NS(=O)(=O)c1cccc2nsnc12)c1ccc(F)cc1 (configuration not stated) | 18.5% | – | 32.6 µM [rising, single point] |
| COCCn1ccc2c(OCC(=O)Nc3ccccc3OC)cccc2c1=O | – | 1.84 µM [rising, partial curve] | – |
| Cc1ccc(S(=O)(=O)N(C)c2ccc(C(=O)N3CCc4ccccc4C3)cc2)cc1 | -24.2% | – | 6.51 µM [rising, single point] |
| CN1OCC(S(=O)(=O)c2ccccc2)C1c1ccccc1 (configuration not stated) | -11% | – | – |
| COc1ccc(CCNc2cc(N3CCN(C(=O)c4ccccc4F)CC3)ccc2[N+](=O)[O-])cc1OC | – | 0.731 µM [falling, partial curve, poor fit] | – |
| O=C(COC(=O)c1cc(Cl)ccc1Cl)NC1CCCC1 | -10.3% | – | – |
| COc1ccc(CCNC(=O)c2cc3cccc(OC)c3oc2=O)cc1OC | -39.7% | 6.51 µM [falling, partial curve, poor fit] | – |
| CCN(CC)CC#CC(C)OCOCC#CCOC (configuration not stated) | -16.2% | – | – |

| Structure (SMILES) | cell number change | AC50 [1] | AC50 [2] |
| --- | --- | --- | --- |
| Cc1noc(C)c1COc1ccccc1C(=O)NC(C)c1ccc(Cl)cc1 (configuration not stated) | 11.1% | 0.13 µM [falling, full curve, poor fit] | – |
| Cc1cccc(N(CC(=O)N=Nc2c(O)[nH]c3ccccc23)S(C)(=O)=O)c1C | 1.25% | 0.092 µM [falling, full curve, poor fit] | 0.13 µM [falling, full curve] |
| COC(=O)[C@H](Cc1ccccc1)NC(=O)O[C@H]1C(=O)c2ccc(OC)cc2O[C@@H]1c1ccc2c(c1)OCO2 | 13.4% | – | 4.61 µM [rising, partial curve] |
| COc1ccccc1NC(=O)COc1ccc(/C=N/NC(=O)c2cccnc2)cc1 | -10.6% | – | – |
| CCCCc1cc(=O)oc2c(C)c(OCc3nn[nH]n3)ccc12 | 23.1% | – | 0.00517 µM [rising, full curve, poor fit] |
| CC(=O)c1cc(C#N)c(Oc2cc(C)cc(C)c2)nc1C | 9.42% | – | – |
| CCOC(=O)CSC1=C(C#N)C(c2ccc(C)s2)CC(=O)N1 (configuration not stated) | -4.27% | – | 18.4 µM [falling, partial curve, poor fit] |
| O=C(CSCc1ccc(Cl)cc1)Nc1ccc(S(=O)(=O)N2CCCCCC2)cc1 | -17.5% | – | 10.3 µM [falling, partial curve, poor fit] |
| Cc1ccc(-c2csc(=S)n2CC(=O)OCC(=O)NCc2ccco2)cc1 | -36.4% | 29.1 µM [falling, single point] | 29.1 µM [falling, single point] |
| CCCCn1c(O)c(N=Nc2ccccc2O)c2ccccc21 | -74% | 16.4 µM [falling, single point] | – |
| O=C(CSc1nnnn1C1CC1)Nc1cccc(S(=O)(=O)N2CCCC2)c1 | -18.5% | – | 16.4 µM [falling, single point] |
| O=C(NC1CC1)[C@@H]1CSC2c3ccccc3C(=O)N21 (some centres not stated) | 12.8% | – | – |
| CC(=O)c1sc(NC(=O)CCCc2nc3ccccc3c(=O)[nH]2)nc1-c1ccccc1 | -0.634% | – | – |
| CCCCOC(=O)Nc1ccc(N2CCCCC2)cc1 | -44.3% | 29.1 µM [falling, single point] | 0.00517 µM [rising, full curve, poor fit] |
| O=C1CN(S(=O)(=O)c2ccc(Cl)cc2)CC(=O)N1CCc1ccccc1 | 22.9% | – | 6.51 µM [falling, single point] |
| Cc1ccc(S(=O)(=O)c2c(N)n(CCCO)c3nc4ccccc4nc23)cc1 | 8.95% | – | 5.8 µM [rising, partial curve] |
| COc1cccc(NC(=O)CN(C)C(=O)CC(C)c2ccccc2)c1 (configuration not stated) | 10.8% | 0.82 µM [rising, partial curve] | 18.4 µM [falling, single point] |
| COc1ccc(NS(=O)(=O)c2csc(C(N)=O)c2)cc1 | -21.8% | 0.731 µM [rising, single point] | – |
| O=C(O)c1c[nH]c2ccc(S(=O)(=O)N3CCN(c4ccc(F)cc4)CC3)cc2c1=O | -19.2% | – | 6.51 µM [falling, single point] |

For reference, some entries already given.

| Structure (SMILES) | cell number change | AC50 [1] | AC50 [2] |
| --- | --- | --- | --- |
| CCCCOC(=O)Nc1ccc(N2CCCCC2)cc1 | -44.3% | 29.1 µM [falling, single point] | 0.00517 µM [rising, full curve, poor fit] |
| O=C1CN(S(=O)(=O)c2ccc(Cl)cc2)CC(=O)N1CCc1ccccc1 | 22.9% | – | 6.51 µM [falling, single point] |
| Cc1ccc(S(=O)(=O)c2c(N)n(CCCO)c3nc4ccccc4nc23)cc1 | 8.95% | – | 5.8 µM [rising, partial curve] |
